Assay results published in publication doi:10.1101/828426.
Results are given in words; binding and its absence hold for the method and conditions named. In cells and extracts the contact can be indirect. Binding calls can cover weak binding; strength is not graded here.

Target: T1, T7-Fbxo45 (murine) (UniProt Q8K3B1)
T1 sequence: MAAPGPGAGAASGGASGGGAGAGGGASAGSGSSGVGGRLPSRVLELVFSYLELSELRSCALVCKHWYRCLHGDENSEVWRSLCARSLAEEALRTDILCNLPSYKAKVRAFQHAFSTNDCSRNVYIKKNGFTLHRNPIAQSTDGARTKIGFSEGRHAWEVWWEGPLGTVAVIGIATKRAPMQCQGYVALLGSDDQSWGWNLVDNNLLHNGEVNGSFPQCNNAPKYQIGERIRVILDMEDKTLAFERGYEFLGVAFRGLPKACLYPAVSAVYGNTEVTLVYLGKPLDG
Experiment: co-IP

binding | Substance
no binding | ECad-HA (murine)
binds | NCad EC1-2 (mouse) (domain or fragment)
